# Measured values: paper PMC12817895
# By UniProt entry, the sequences of proteins in these tests, tags left out. Where a name states a change or a piece, a line headed by the entry shows the natural chain unless it says otherwise.
# UniProt Q5YFH7: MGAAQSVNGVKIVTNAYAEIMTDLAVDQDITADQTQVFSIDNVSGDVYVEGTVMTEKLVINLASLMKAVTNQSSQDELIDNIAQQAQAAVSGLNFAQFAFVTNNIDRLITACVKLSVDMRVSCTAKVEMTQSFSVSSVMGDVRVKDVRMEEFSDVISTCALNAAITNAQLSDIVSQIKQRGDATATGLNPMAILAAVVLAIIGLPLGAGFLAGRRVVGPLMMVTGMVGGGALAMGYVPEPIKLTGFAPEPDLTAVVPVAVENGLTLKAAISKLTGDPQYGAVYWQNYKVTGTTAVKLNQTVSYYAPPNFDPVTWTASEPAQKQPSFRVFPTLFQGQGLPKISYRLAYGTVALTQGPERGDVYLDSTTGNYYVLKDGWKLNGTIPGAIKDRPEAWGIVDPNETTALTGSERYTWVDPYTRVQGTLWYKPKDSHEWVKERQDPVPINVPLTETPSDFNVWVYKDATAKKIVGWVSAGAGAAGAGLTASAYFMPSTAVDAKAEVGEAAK
# UniProt A0A509ZL19: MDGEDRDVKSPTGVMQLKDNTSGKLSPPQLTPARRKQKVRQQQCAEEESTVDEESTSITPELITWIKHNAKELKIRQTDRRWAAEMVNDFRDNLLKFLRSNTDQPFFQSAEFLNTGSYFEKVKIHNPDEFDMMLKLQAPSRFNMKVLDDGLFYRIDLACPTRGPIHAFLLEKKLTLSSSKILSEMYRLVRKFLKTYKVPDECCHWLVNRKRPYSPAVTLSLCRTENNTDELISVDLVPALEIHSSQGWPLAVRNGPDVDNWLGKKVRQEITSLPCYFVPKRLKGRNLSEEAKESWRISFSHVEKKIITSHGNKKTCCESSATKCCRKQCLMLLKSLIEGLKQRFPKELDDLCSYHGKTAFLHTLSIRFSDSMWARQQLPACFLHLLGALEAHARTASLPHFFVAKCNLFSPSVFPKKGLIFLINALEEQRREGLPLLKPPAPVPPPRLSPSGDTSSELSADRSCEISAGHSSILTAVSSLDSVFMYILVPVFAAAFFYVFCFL
# Results are given in words; binding and its absence hold for the method and conditions named. Binding seen in cells or lysates may run through a third protein. Binding calls can cover weak binding; strength is not graded here.
# Key:
# Assay in all cases: co-IP; GS cells co-transfected with two tagged plasmids (or empty vector), no SGIV infection, lysed 48 h post-transfection in IP lysis buffer; HA-tag, Flag-tag or GFP-Trap magnetic beads; immunoblot
# [1] = molecular target: HA-tagged VP088 (pcDNA3.1-HA-VP088) (Singapore grouper iridovirus (SGIV)) (UniProt Q5YFH7)
# [2] = molecular target: HA-tagged EcTBK1 (pHA-EcTBK1) (grouper (Epinephelus coioides))
# [3] = molecular target: Flag-tagged VP088 (pCMV-3×Flag-VP088) (Singapore grouper iridovirus (SGIV)) (UniProt Q5YFH7)
substance,measurement,setting,value
Flag-tagged EccGAS (pFlag-EccGAS) (from UniProt A0A509ZL19),binding,[1],binds
GFP-tagged VP088 (pEGFP-C1-VP088) (from UniProt Q5YFH7),binding,[2],binds
HA-tagged EcTBK1 (pHA-EcTBK1) (from UniProt A0A384WXS2),binding,[3],binds
